Measured values as given in PMC4890047.

Target: Flag-P (MOKV) (Mokola virus (RV4))
Test: co-IP

B1: Cdc37 expressed from pCI-neo-Cdc37 (protein, UniProt Q61081 1-379)
chain: MVDYSVWDHIEVSDDEDETHPNIDTASLFRWRHQARVERMEQFQKEKEELDRGCRECKRKVAECQRKLKELEVAESDGQVELERLRAEAQQLRKEERSWEQKLEDMRKKEKNMPWNVDTLSKDGFSKSMVNTKPEKAEEDSEEAREQKHKTFVEKYEKQIKHFGMLHRWDDSQKYLSDNVHLVCEETANYLVIWCIDLEVEEKCALMEQVAHQTMVMQFILELAKSLKVDPRACFRQFFTKIKTADHQYMEGFKYELEAFKERVRGRAKLRIEKAMKEYEEEERKKRLGPGGLDPVEVYESLPEELQKCFDVKDVQMLQDAISKMDPTDAKYHMQRCIDSGLWVPNSKSGEAKEGEEAGPGDPLLEAVPKAGNEKDVSA
- binding: binds

Results are given in words; binding and its absence hold for the method and conditions named. Binding seen in cells or lysates may run through a third protein. Binding calls can cover weak binding; strength is not graded here.
